Measurements taken from article doi:10.1101/2021.12.06.471412.
Results are given in words; binding and its absence hold for the method and conditions named. Some entries that bind do so weakly or less than the wild type.

T1: F-ATP synthase subunit γ (bovine heart) (bovine) (UniProt P05631)
T1 sequence: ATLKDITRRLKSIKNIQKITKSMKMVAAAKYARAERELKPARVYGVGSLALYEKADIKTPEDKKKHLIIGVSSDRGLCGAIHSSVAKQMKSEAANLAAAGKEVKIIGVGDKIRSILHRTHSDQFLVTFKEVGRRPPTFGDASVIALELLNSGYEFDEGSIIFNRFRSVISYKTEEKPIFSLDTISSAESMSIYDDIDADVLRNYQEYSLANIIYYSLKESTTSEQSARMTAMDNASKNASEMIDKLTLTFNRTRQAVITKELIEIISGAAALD


How the values were obtained:
[1] = molecular target: T1, F-ATP synthase subunit γ (bovine heart) (bovine); experiment: far-Western, overlay or dot blot
[2] = molecular target: recombinant mature human CyPD (human), P30405; experiment: far-Western, overlay or dot blot; conditions: remark: other sources report otherwise

binding [1]	binding [2]	Binder
binds	–	purified human TRAP1 (protein, UniProt Q12931 60-704) STQTAEDKEEPLHSIISSTESVQGSTSKHEFQAETKKLLDIVARSLYSEKEVFIRELISNASDALEKLRHKLVSDGQALPEMEIHLQTNAEKGTITIQDTGIGMTQEELVSNLGTIARSGSKAFLDALQNQAEASSKIIGQFGVGFYSAFMVADRVEVYSRSAAPGSLGYQWLSDGSGVFEIAEASGVRTGTKIIIHLKSDCKEFSSEARVRDVVTKYSNFVSFPLYLNGRRMNTLQAIWMMDPKDVREWQHEEFYRYVAQAHDKPRYTLHYKTDAPLNIRSIFYVPDMKPSMFDVSRELGSSVALYSRKVLIQTKATDILPKWLRFIRGVVDSEDIPLNLSRELLQESALIRKLRDVLQQRLIKFFIDQSKKDAEKYAKFFEDYGLFMREGIVTATEQEVKEDIAKLLRYESSALPSGQLTSLSEYASRMRAGTRNIYYLCAPNRHLAEHSPYYEAMKKKDTEVLFCFEQFDELTLLHLREFDKKKLISVETDIVVDHYKEEKFEDRSPAAECLSEKETEELMAWMRNVLGSRVTNVKVTLRLDTHPAMVTVLEMGAARHFLRMQQLAKTQEERAQLLQPTLEINPRHALIKKLNQLRASEPGLAQLLVDQIYENAMIAAGLVDDPRAMVGRLNELLVKALERH
–	binds	purified human TRAP1, Q12931 60-704 (protein) STQTAEDKEEPLHSIISSTESVQGSTSKHEFQAETKKLLDIVARSLYSEKEVFIRELISNASDALEKLRHKLVSDGQALPEMEIHLQTNAEKGTITIQDTGIGMTQEELVSNLGTIARSGSKAFLDALQNQAEASSKIIGQFGVGFYSAFMVADRVEVYSRSAAPGSLGYQWLSDGSGVFEIAEASGVRTGTKIIIHLKSDCKEFSSEARVRDVVTKYSNFVSFPLYLNGRRMNTLQAIWMMDPKDVREWQHEEFYRYVAQAHDKPRYTLHYKTDAPLNIRSIFYVPDMKPSMFDVSRELGSSVALYSRKVLIQTKATDILPKWLRFIRGVVDSEDIPLNLSRELLQESALIRKLRDVLQQRLIKFFIDQSKKDAEKYAKFFEDYGLFMREGIVTATEQEVKEDIAKLLRYESSALPSGQLTSLSEYASRMRAGTRNIYYLCAPNRHLAEHSPYYEAMKKKDTEVLFCFEQFDELTLLHLREFDKKKLISVETDIVVDHYKEEKFEDRSPAAECLSEKETEELMAWMRNVLGSRVTNVKVTLRLDTHPAMVTVLEMGAARHFLRMQQLAKTQEERAQLLQPTLEINPRHALIKKLNQLRASEPGLAQLLVDQIYENAMIAAGLVDDPRAMVGRLNELLVKALERH
